Test results published in US20230257479A1.
No constants are given. Whether binding was seen depends on the method and setting.

Sequences of proteins named here, by UniProt entry; tags and fusion partners are left off. A change or cut given only in a name is not applied to a line headed by its entry.
UniProt Q13641: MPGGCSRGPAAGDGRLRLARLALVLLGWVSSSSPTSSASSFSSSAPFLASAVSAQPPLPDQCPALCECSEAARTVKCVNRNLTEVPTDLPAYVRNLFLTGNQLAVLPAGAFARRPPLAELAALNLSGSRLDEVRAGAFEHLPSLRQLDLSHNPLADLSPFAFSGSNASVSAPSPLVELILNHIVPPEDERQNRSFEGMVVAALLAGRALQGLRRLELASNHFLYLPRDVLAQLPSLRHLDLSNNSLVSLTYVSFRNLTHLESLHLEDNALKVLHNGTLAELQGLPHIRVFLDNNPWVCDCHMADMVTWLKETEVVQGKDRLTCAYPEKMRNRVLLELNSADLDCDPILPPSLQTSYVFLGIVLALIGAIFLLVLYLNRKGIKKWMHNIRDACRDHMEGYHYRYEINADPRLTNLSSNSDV
UniProt Q4R8Y9: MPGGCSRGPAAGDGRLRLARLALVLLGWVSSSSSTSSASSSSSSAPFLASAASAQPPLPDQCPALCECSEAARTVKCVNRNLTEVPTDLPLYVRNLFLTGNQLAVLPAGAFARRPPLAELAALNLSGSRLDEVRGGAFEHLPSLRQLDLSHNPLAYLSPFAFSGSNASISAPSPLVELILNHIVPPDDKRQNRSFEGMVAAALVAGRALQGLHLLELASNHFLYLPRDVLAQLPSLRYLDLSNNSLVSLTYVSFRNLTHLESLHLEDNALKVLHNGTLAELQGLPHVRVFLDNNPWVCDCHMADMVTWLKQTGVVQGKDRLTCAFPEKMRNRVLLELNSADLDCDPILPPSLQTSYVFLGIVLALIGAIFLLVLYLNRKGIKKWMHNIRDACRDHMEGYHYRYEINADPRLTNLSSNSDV

Tests used:
[1] = target: T1, full length chicken 5T4 (SEQ ID NO: 3) on transfected HEK-293 cells (chicken); assay: flow cytometry, HEK-293 cells transfected with chicken 5T4, PE secondary
T1 sequence: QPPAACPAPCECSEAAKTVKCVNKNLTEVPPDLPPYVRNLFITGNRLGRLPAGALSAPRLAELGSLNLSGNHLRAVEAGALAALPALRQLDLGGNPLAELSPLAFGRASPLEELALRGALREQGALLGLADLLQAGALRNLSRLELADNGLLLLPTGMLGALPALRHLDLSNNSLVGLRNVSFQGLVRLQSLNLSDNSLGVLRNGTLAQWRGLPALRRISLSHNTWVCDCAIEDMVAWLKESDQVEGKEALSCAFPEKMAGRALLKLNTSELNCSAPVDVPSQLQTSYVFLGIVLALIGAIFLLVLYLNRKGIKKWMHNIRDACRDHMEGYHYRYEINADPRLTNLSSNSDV

[2] = target: full length human 5T4 (SEQ ID NO: 1) on cells (human) (UniProt Q13641); assay: flow cytometry, transfected HEK-293 cells
[3] = target: full length cynomolgus monkey 5T4 on transfected HEK-293 cells (cynomolgus monkey) (UniProt Q4R8Y9); assay: flow cytometry, transfected HEK-293 cells
[4] = target: full length human 5T4 (SEQ ID NO: 1) on cells (human) (UniProt Q13641); assay: flow cytometry, HEK-293 cells transfected with human 5T4, FITC secondary [I)D]
[5] = target: full length human 5T4 (SEQ ID NO: 1) on cells (human) (UniProt Q13641); assay: flow cytometry, MDA-MB-231 cells, FITC secondary [I)A]
[6] = target: full length human 5T4 (SEQ ID NO: 1) on cells (human) (UniProt Q13641); assay: flow cytometry, transfected HEK-293 cells; remark: listed apart in the source
[7] = target: T1, full length chicken 5T4 (SEQ ID NO: 3) on transfected HEK-293 cells (chicken); assay: flow cytometry, transfected HEK-293 cells
[8] = target: full length human 5T4 (SEQ ID NO: 1) on cells (human) (UniProt Q13641); assay: flow cytometry, HeLa cells, FITC secondary [I)C]
[9] = target: full length cynomolgus monkey 5T4 on transfected HEK-293 cells (cynomolgus monkey) (UniProt Q4R8Y9); assay: flow cytometry, HEK-293 cells transfected with cynomolgus monkey 5T4, FITC secondary [I)C]
[10] = target: full length human 5T4 (SEQ ID NO: 1) on cells (human) (UniProt Q13641); assay: flow cytometry, HEK-293 cells transfected with human 5T4, FITC secondary [I)B]
[11] = target: full length cynomolgus monkey 5T4 on transfected HEK-293 cells (cynomolgus monkey) (UniProt Q4R8Y9); assay: flow cytometry, HEK-293 cells transfected with cynomolgus monkey 5T4, FITC secondary [I)A]
[12] = target: full length human 5T4 (SEQ ID NO: 1) on cells (human) (UniProt Q13641); assay: flow cytometry, MDA-MB-231 cells, FITC secondary [I)B]
[13] = target: full length human 5T4 (SEQ ID NO: 1) on cells (human) (UniProt Q13641); assay: flow cytometry, HeLa cells, FITC secondary [I)B]
[14] = target: full length human 5T4 (SEQ ID NO: 1) on cells (human) (UniProt Q13641); assay: flow cytometry, HEK-293 cells transfected with human 5T4, FITC secondary [I)A]
[15] = target: full length human 5T4 (SEQ ID NO: 1) on cells (human) (UniProt Q13641); assay: flow cytometry, HEK-293 cells transfected with human 5T4, PE secondary
[16] = target: full length human 5T4 (SEQ ID NO: 1) on cells (human) (UniProt Q13641); assay: flow cytometry, HeLa cells, FITC secondary [I)A]
[17] = target: full length cynomolgus monkey 5T4 on transfected HEK-293 cells (cynomolgus monkey) (UniProt Q4R8Y9); assay: flow cytometry, HEK-293 cells transfected with cynomolgus monkey 5T4, FITC secondary [I)D]
[18] = target: full length human 5T4 (SEQ ID NO: 1) on cells (human) (UniProt Q13641); assay: flow cytometry, HEK-293 cells transfected with human 5T4, FITC secondary [I)C]
[19] = target: full length human 5T4 (SEQ ID NO: 1) on cells (human) (UniProt Q13641); assay: flow cytometry, MDA-MB-231 cells, FITC secondary [I)C]
[20] = target: full length human 5T4 (SEQ ID NO: 1) on cells (human) (UniProt Q13641); assay: flow cytometry, HeLa and MDA-MB-231 cells
[21] = target: full length cynomolgus monkey 5T4 on transfected HEK-293 cells (cynomolgus monkey) (UniProt Q4R8Y9); assay: flow cytometry, HEK-293 cells transfected with cynomolgus monkey 5T4, FITC secondary [I)B]

B1: IgG1-b12-K409R (antibody, V domains shown)
VH: QVQLVQSGAEVKKPGASVKVSCQASGYRFSNFVIHWVRQAPGQRFEWMGWINPYNGNKEFSAKFQDRVTFTADTSANTAYMELRSLRSADTAVYYCARVGPYSWDDSPQDNYYMDVWGKGTTVIVSS
VL: EIVLTQSPGTLSLSPGERATFSCRSSHSIRSRRVAWYQHKPGQAPRLVIHGVSNRASGISDRFSGSGSGTDFTLTITRVEPEDFALYYCQVYGASSYTFGQGTKLERK
[1]
  binding: no binding (tested: 10 µg/ml)
[2]
  binding: no binding (tested: 3 µg/mL)
[3]
  binding: no binding (tested: 3 µg/mL)
[4]
  binding: no binding (tested: 3 µg/ml)
[5]
  binding: no binding (tested: 3 µg/ml)
[6]
  binding: no binding (tested: 10 µg/mL)
[7]
  binding: no binding (tested: 10 µg/mL)
[8]
  binding: no binding (tested: 3 µg/ml)
[9]
  binding: no binding (tested: 3 µg/ml)
[10]
  binding: no binding (tested: 3 µg/ml)
[11]
  binding: no binding (tested: 3 µg/ml)
[12]
  binding: no binding (tested: 3 µg/ml)
[13]
  binding: no binding (tested: 3 µg/ml)
[14]
  binding: no binding (tested: 3 µg/ml)
[15]
  binding: no binding (tested: 10 µg/ml)
[16]
  binding: no binding (tested: 3 µg/ml)
[17]
  binding: no binding (tested: 3 µg/ml)
[18]
  binding: no binding (tested: 3 µg/ml)
[19]
  binding: no binding (tested: 3 µg/ml)
[20]
  binding: no binding (tested: 3 µg/mL)
[21]
  binding: no binding (tested: 3 µg/ml)
